Tested on: 403 WT human kinases
Assay: scanMAX kinome-wide profiling (DiscoverX), whole panel
Assay type: binding
Conditions: profiled at 1 μM against 403 WT kinases

| Compound | number of kinases with PoC <10 |
| --- | --- |
| CN(C)CC(=O)Nc1n[nH]c2ccc(-c3cn(Cc4ccccc4)nn3)cc12 [AKI00000062a] | 17 |
| COc1cnc(COc2ccc(F)c(F)c2)cc1-c1cc2c([nH]1)CCNC2=O [FP1-24-2, 2-(2-((3,4-difluorophenoxy)methyl)-5-methoxypyridin-4-yl)-1,5,6,7-tetrahydro-4H-pyrrolo[3,2-c]pyridin-4-one] | 14 |

— paper PMC9157009, “Protein proximity networks and functional evaluation of the casein kinase 1 gamma family reveal unique roles for CK1γ3 in WNT signaling” (The Journal of Biological Chemistry, 2022)
